Data from patent publication US20110020344A1 (US Dept. of Health and Human Services, published 2011).
These are yes or no findings as the source states them, for the method shown. Some binding calls cover weakened binding; strength is not graded here.

Legend:
Soluble CD22 (PeproTech) = biological target: T1, Soluble CD22 (PeproTech) (human, UniProt P20273 20-687, limits assumed); test: ELISA on coated soluble CD22
T1 construct: Bought from PeproTech; also called sCD22; soluble CD22 purified from mammalian cells
T1 sequence: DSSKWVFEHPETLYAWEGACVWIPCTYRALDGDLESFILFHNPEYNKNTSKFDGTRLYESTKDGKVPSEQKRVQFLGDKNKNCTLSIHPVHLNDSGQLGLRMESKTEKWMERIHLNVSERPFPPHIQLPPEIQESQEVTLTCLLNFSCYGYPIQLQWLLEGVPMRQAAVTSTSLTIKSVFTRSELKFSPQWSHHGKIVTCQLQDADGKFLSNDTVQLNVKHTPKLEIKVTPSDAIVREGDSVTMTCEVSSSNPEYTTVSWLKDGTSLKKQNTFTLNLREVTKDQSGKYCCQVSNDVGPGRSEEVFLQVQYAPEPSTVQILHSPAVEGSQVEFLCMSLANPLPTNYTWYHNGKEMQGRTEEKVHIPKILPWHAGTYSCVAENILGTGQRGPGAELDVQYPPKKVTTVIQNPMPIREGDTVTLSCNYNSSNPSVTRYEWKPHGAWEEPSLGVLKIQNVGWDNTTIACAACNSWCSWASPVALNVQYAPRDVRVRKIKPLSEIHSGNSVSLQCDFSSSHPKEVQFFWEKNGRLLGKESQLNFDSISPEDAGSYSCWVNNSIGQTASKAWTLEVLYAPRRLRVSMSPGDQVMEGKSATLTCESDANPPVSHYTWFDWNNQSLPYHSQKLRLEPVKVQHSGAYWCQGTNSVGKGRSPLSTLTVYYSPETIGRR

[1] = biological target: CD22 region including domains 5 to 7 (human) (UniProt P20273); test: ELISA: coated antibody captures Myc/His tagged CD22 fragments, anti-Myc-HRP detection

B1: Fab m972 (Fab, V domains shown)
VH: EVQLVQSGGGVVRPGGSLRLPCAASGFTFDDYGMSWVRQAPGKGLEWVSGINWNGGSTGYADSVKGRFTISRDNAKNSLYLQMNSLRAEDTALYHCARGGDDAFDIWGQGTMVTVSS
VL: RIVMTQSPGTLSVSPGETATLSCRASQSFSNMLAWYQQKSGQPPRLLIYGVSTRAAGVPARFSGSGSGTEFTLTISNLQSEDFAVYYCQQYGDWPRYTFGQGTKVERKR
notes: Human Fab from a naive Fab phage library, expressed in E. coli HB2151; also called m972 Fab
**Q.** Which results are given for B1?
**A.** binding (Soluble CD22 (PeproTech)): binds; binding [1]: binds
